According to publication PMC5080440:
Results are given in words; binding and its absence hold for the method and conditions named. Where a sequence is shown, tags or fusion partners need not be part of it.

Biological target: T1, wild-type TagRFP-T-CENP-C (Drosophila melanogaster) (UniProt Q9VHP9)
T1 sequence: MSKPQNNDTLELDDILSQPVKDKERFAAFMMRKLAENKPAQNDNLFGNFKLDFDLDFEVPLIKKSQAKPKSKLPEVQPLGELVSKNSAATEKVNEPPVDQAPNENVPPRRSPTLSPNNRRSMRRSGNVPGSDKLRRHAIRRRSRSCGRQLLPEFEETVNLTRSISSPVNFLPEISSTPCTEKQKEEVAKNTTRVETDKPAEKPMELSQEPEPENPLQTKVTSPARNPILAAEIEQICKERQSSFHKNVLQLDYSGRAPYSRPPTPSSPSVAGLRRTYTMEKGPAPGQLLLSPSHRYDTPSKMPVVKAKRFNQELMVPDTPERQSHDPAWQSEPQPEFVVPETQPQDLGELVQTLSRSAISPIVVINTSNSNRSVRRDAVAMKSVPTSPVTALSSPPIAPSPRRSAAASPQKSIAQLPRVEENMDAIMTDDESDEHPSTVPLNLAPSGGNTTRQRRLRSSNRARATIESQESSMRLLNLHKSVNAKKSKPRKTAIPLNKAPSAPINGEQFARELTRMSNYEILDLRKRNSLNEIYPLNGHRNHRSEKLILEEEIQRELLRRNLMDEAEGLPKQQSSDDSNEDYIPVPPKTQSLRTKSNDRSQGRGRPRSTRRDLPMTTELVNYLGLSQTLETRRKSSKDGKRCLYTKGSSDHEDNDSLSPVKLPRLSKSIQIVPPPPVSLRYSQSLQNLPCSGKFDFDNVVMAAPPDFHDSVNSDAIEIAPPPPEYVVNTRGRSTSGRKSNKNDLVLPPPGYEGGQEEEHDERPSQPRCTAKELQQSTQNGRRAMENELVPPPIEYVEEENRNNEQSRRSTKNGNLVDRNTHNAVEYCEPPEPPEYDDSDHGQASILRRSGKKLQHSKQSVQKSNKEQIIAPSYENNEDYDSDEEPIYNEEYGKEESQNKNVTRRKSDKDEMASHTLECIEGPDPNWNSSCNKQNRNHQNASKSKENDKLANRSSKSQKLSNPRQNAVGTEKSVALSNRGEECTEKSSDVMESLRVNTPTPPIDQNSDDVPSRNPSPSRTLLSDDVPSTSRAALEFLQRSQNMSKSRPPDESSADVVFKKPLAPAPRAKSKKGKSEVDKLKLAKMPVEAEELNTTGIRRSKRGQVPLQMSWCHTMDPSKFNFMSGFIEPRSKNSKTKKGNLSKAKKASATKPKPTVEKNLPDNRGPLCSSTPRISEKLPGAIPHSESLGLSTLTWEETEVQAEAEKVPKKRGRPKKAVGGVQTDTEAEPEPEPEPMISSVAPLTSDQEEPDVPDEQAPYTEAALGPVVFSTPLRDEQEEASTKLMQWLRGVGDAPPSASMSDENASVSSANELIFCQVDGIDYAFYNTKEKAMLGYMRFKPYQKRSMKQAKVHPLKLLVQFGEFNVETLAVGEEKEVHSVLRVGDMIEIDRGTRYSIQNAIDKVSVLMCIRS
Assay: fluorescence imaging of recruitment to kinetochores in cells; VH-EGFP in S2 cells expressing TagRFP-T-CENP-C-TR or wild-type TagRFP-T-CENP-C; localisation to kinetochores scored

binding: no binding
B1: vinculin head domain (aa 1-258) fused to EGFP (domain or fragment, UniProt P12003 1-258)
chain: MPVFHTRTIESILEPVAQQISHLVIMHEEGEVDGKAIPDLTAPVSAVQAAVSNLVRVGKETVQTTEDQILKRDMPPAFIKVENACTKLVRAAQMLQADPYSVPARDYLIDGSRGILSGTSDLLLTFDEAEVRKIIRVCKGILEYLTVAEVVETMEDLVTYTKNLGPGMTKMAKMIDERQQELTHQEHRVMLVNSMNTVKELLPVLISAMKIFVTTKNTKSQGIEEALKNRNFTVEKMSAEINEIIRVLQLTSWDEDAW
